Results as given in paper PMC3757082.
These are yes or no findings as the source states them, for the method shown.

T1: RSA1, bait RSA1-pDEST32 (Arabidopsis thaliana) (UniProt F4IS91)
T1 sequence: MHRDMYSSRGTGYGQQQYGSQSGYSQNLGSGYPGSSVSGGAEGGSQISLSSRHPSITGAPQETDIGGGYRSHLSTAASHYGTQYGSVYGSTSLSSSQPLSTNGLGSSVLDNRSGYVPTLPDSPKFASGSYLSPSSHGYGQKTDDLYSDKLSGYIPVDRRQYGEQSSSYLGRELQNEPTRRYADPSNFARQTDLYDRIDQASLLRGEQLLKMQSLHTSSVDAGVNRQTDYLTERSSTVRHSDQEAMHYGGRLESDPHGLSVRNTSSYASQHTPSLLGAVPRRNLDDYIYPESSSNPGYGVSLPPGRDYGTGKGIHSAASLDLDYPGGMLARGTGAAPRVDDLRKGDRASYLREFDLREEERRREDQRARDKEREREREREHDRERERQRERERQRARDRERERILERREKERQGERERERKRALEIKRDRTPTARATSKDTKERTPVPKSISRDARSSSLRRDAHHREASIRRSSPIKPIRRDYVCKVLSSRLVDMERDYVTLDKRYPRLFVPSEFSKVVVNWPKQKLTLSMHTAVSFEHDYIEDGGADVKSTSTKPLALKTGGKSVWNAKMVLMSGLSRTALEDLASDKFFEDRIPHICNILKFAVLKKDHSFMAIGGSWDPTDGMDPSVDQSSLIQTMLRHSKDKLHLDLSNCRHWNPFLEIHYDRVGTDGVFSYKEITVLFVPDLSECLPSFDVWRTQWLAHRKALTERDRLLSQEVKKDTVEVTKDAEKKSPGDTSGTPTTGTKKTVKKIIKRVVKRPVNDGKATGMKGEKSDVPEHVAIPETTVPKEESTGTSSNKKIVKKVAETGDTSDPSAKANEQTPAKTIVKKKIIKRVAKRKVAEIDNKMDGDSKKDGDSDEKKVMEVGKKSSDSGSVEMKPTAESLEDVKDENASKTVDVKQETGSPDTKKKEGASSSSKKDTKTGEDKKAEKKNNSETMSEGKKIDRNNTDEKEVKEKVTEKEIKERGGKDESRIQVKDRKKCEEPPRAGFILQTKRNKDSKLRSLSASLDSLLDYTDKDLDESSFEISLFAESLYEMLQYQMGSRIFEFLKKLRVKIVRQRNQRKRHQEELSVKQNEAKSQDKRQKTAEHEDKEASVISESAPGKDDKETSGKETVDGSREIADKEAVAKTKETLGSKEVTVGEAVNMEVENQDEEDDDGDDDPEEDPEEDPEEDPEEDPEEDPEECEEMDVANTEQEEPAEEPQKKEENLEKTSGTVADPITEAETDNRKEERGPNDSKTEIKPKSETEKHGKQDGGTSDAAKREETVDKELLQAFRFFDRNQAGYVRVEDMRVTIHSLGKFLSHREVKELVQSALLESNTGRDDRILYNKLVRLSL


Target: T1, RSA1, bait RSA1-pDEST32 (Arabidopsis thaliana)
Assay: two-hybrid; RSA1 with RITF1 homologs in pDEST22, yeast strain MaV203, x-gal assay and growth on SD-L-W-H+3-AT

| binding | Binder |
| --- | --- |
| no binding | RITF1 homolog encoded by At3g17100, prey in pDEST22 (protein, UniProt Q9LSN7 1-230) MESISPVSNQLLQPTTTSSNSDRSRRKRKKKSSPSSVEKSPSPSISLEKWRSEKQQQIYSTKLVHALRELRISQQPSSSSSSSIPRGGRAVREVADRALAVAARGKTLWSRAILSKAVKLKFRKHKRQRISNPTTTTLTTGSIRSKKQRATVLRLKAKGLPAVQRKVKVLSRLVPGCRKQSLPVVLEETTDYIAAMEMQIRTMTAILSAVSSSPPPPTPGHEGGQTHMLG |
| no binding | RITF1 homolog encoded by At3g05800, prey in pDEST22 (protein, UniProt Q9M9L6 1-211) MSSEQGNGSNPSTSPEVEGTKTIPFRRRLQRGQRVFAPKLMEALRRSRVSSEEAPVRHLSRRWRATTAQKVYSLKLYDALQRSRRSATVRDTADKVLATTARGATRWSRAILVSRFGTSLRRRRNTKPASALAAAIRGSGGSGRRRKLSAVGNRVRVLGGLVPGCRRTALPELLDETADYIAALEMQVRAMTALSKILSELQPSTNLGSAL |
| no binding | RITF1 homolog encoded by At1g09250, prey in pDEST22 (protein, UniProt O80482 1-207) MVESLFPSIENTGESSRRKKPRISETAEAEIEARRVNEESLKRWKTNRVQQIYACKLVEALRRVRQRSSTTSNNETDKLVSGAAREIRDTADRVLAASARGTTRWSRAILASRVRAKLKKHRKAKKSTGNCKSRKGLTETNRIKLPAVERKLKILGRLVPGCRKVSVPNLLDEATDYIAALEMQVRAMEALAELLTAAAPRTTLTGT |
